Laboratory results taken from paper PMC12591160, “Polyadenylation Complex CFII Recognizes Downstream Cis‐element for Pre‐mRNA Polyadenylation Through Interaction with an RNA‐Binding Protein in Arabidopsis”.
No constants are given. Whether binding was seen depends on the method and setting. For part of these data: In cells and extracts the contact can be indirect. Some binding calls cover weakened binding; strength is not graded here. Tags and fused reporters may be left off the sequences shown.

Key:
[1] = target: T1, PCFS4 (yeast two-hybrid fusion; bridge protein of the three-hybrid) (Arabidopsis thaliana) (UniProt Q0WPF2); assay: two-hybrid; pGADT7 (AD) and pGBKT7 (BD) plasmids co-transformed into yeast AH109; growth on SD/-Leu/-Trp/-His/-Ade
T1 sequence: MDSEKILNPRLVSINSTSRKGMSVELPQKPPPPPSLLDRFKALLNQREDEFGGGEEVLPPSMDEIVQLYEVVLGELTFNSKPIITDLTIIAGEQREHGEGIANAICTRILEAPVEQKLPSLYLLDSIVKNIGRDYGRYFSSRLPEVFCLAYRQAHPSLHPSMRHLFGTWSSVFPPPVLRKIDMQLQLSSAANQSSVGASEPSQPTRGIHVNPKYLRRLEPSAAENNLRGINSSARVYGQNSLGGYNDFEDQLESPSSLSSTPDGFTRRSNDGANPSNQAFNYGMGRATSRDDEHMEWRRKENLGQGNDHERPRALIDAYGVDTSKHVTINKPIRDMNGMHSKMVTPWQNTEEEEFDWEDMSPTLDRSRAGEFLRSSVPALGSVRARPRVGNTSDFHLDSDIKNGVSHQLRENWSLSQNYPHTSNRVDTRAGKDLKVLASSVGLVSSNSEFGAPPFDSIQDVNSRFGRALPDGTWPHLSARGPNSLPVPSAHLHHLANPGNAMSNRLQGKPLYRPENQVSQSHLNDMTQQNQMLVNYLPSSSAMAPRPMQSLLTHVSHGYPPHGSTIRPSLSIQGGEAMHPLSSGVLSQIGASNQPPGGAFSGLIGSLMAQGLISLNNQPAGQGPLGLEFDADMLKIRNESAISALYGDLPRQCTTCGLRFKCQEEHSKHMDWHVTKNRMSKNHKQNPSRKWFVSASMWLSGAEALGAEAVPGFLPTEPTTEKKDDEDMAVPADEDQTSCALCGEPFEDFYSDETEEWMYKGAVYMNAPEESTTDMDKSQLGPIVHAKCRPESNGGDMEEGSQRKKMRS

[2] = target: T2, full-length PCFS4 tagged with GFP or RFP (N. benthamiana) (Arabidopsis thaliana) (UniProt Q0WPF2); assay: FRET or BRET; acceptor photobleaching FRET of two co-expressed GFP- (donor) and RFP- (acceptor) tagged proteins in N. benthamiana leaf cells, 48 h after infiltration; at least 8 cells
T2 sequence: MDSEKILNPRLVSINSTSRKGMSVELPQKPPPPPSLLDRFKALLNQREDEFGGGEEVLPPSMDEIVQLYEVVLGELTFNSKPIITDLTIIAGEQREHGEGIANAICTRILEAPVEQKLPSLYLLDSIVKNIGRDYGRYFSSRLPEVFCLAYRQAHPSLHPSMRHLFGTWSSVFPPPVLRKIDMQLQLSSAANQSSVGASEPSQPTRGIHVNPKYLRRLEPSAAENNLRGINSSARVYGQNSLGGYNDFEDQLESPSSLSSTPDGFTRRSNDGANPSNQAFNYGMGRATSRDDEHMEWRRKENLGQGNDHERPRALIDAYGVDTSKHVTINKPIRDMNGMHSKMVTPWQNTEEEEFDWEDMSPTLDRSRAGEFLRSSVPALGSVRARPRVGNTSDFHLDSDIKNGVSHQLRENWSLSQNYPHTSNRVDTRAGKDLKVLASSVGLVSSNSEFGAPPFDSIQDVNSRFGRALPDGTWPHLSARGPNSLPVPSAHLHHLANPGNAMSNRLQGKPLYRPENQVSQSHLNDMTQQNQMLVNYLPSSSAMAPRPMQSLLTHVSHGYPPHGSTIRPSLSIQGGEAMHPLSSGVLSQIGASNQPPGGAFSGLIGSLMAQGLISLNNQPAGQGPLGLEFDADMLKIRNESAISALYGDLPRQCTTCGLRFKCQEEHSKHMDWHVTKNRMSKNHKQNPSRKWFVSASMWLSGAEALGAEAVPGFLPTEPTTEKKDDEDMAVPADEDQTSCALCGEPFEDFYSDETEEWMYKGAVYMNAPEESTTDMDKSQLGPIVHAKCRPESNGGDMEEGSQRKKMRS

[3] = target: T3, FPA with a FLAG tag (Arabidopsis protoplasts) (Arabidopsis thaliana) (UniProt Q8LPQ9); assay: co-IP; Arabidopsis protoplasts co-transformed with FLAG-tagged FPA and a MYC-tagged protein; lysate (150 mM NaCl, 0.2% Triton X-100, pH 7.4) on anti-FLAG M2 magnetic beads, 2 h at 4 °C; blots with anti-FLAG and anti-MYC
T3 sequence: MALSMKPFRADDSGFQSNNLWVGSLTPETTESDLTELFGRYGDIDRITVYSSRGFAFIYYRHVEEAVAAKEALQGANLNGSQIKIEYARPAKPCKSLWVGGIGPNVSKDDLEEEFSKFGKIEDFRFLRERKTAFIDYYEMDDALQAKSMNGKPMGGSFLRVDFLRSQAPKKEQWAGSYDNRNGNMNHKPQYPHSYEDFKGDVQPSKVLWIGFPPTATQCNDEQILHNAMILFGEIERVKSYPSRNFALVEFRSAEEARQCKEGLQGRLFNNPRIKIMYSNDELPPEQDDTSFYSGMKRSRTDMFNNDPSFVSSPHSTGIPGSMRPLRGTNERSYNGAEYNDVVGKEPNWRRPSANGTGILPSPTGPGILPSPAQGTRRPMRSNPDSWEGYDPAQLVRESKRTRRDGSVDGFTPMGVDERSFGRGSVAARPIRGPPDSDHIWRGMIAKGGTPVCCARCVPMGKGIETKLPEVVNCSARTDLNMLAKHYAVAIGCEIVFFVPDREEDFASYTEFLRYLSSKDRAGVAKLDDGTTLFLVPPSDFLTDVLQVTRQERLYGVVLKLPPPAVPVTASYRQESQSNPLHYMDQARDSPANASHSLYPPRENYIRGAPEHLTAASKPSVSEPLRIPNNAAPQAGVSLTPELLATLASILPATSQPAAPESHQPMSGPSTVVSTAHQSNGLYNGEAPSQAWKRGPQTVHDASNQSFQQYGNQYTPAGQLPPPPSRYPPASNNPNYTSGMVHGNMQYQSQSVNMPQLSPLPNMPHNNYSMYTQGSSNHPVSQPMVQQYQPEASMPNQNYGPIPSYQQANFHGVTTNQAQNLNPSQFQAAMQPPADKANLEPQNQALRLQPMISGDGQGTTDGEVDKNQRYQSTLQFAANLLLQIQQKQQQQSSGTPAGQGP

B1: CLPS3 (yeast two-hybrid and three-hybrid fusion) (protein, UniProt Q9SR06 1-444)
chain: MAYGGPSMNPPALSGAVPGSANLKQVKLERESELRIEVSEEPLRLRVVNGTAEIFGSELPPEIWRTFPPRMKFAVFTWYGATIEMDGVTETDYTADETPMVSYINVHAILDARRRFAKASTSNDPESSQGPRVIVVGPTDSGKSTLTKMLLSWAAKQGWRPTFVDLDVGQGSITIPGSIAAAPIEMPLDPVEGFPLDMALVYYYGHASPNMNVELYKALVKELAQVLEKQFVGNPESRAAGMVINTMGWIEGIGYELLLHAIDTFNASVVLVLGQEKLFSRLKDVLRSKSNVDVVKLHKSGGVVARVKEVRKRSRNFKIQEYFYGLSKELSPYANTSSFSDLQVFRIGGGPQAPKSALPAGSTSVSNPLRVTPVNIDDRDLLHSVLAVSYAEEPDQIISSNVSGFVYVTEVNVQKKKITYLAPSPGTLPSKLLVAGSLAWLESV
Q: With B1 as the binder, how does the binding [1] read?
A: binds

B2: CLPS3 tagged with GFP or RFP (N. benthamiana) (protein, UniProt Q9SR06 1-444)
chain: MAYGGPSMNPPALSGAVPGSANLKQVKLERESELRIEVSEEPLRLRVVNGTAEIFGSELPPEIWRTFPPRMKFAVFTWYGATIEMDGVTETDYTADETPMVSYINVHAILDARRRFAKASTSNDPESSQGPRVIVVGPTDSGKSTLTKMLLSWAAKQGWRPTFVDLDVGQGSITIPGSIAAAPIEMPLDPVEGFPLDMALVYYYGHASPNMNVELYKALVKELAQVLEKQFVGNPESRAAGMVINTMGWIEGIGYELLLHAIDTFNASVVLVLGQEKLFSRLKDVLRSKSNVDVVKLHKSGGVVARVKEVRKRSRNFKIQEYFYGLSKELSPYANTSSFSDLQVFRIGGGPQAPKSALPAGSTSVSNPLRVTPVNIDDRDLLHSVLAVSYAEEPDQIISSNVSGFVYVTEVNVQKKKITYLAPSPGTLPSKLLVAGSLAWLESV
Q: B2 was tested. Which binding [2] did it give?
A: binds

B3: PCFS4 with MYC tag (Arabidopsis protoplasts) (protein, UniProt Q0WPF2 1-808)
chain: MDSEKILNPRLVSINSTSRKGMSVELPQKPPPPPSLLDRFKALLNQREDEFGGGEEVLPPSMDEIVQLYEVVLGELTFNSKPIITDLTIIAGEQREHGEGIANAICTRILEAPVEQKLPSLYLLDSIVKNIGRDYGRYFSSRLPEVFCLAYRQAHPSLHPSMRHLFGTWSSVFPPPVLRKIDMQLQLSSAANQSSVGASEPSQPTRGIHVNPKYLRRLEPSAAENNLRGINSSARVYGQNSLGGYNDFEDQLESPSSLSSTPDGFTRRSNDGANPSNQAFNYGMGRATSRDDEHMEWRRKENLGQGNDHERPRALIDAYGVDTSKHVTINKPIRDMNGMHSKMVTPWQNTEEEEFDWEDMSPTLDRSRAGEFLRSSVPALGSVRARPRVGNTSDFHLDSDIKNGVSHQLRENWSLSQNYPHTSNRVDTRAGKDLKVLASSVGLVSSNSEFGAPPFDSIQDVNSRFGRALPDGTWPHLSARGPNSLPVPSAHLHHLANPGNAMSNRLQGKPLYRPENQVSQSHLNDMTQQNQMLVNYLPSSSAMAPRPMQSLLTHVSHGYPPHGSTIRPSLSIQGGEAMHPLSSGVLSQIGASNQPPGGAFSGLIGSLMAQGLISLNNQPAGQGPLGLEFDADMLKIRNESAISALYGDLPRQCTTCGLRFKCQEEHSKHMDWHVTKNRMSKNHKQNPSRKWFVSASMWLSGAEALGAEAVPGFLPTEPTTEKKDDEDMAVPADEDQTSCALCGEPFEDFYSDETEEWMYKGAVYMNAPEESTTDMDKSQLGPIVHAKCRPESNGGDMEEGSQRKKMRS
Q: Which binding [3] does the source give for B3 here?
A: binds
